This passage reports cyclisation yield and isolated yield results from paper PMC5949603 (Chemical Science, 2015).

Bridges are numbered along the chain shown (N, C = ends). [ ]: non-standard residue; d: D form.

A short description of one series: general procedure: Fmoc solid-phase peptide synthesis; Wang resin; 2-chlorotrityl (2CT) resin; HATU, iPr2EtN (cyclisations). The following applies: cyclisation step, second cyclization, TFA salt.
For “LG[dK][dY]PEA (lactam 3-C, N-6; SMILES CC(C)C[C@@H]1NC(=O)CC[C@@H]2NC(=O)[C@@H]3CCCN3C(=O)[C@@H](Cc3ccc(O)cc3)NC(=O)[C@@H](CCCCNC(=O)[C@H](C)NC2=O)NC(=O)CNC1=O)”, the cyclisation yield turned out to be 42%.

Take “[dL]G[dK][dF]PE[dA] (lactam 3-C, N-6; SMILES CC(C)C[C@H]1NC(=O)CC[C@@H]2NC(=O)[C@@H]3CCCN3C(=O)[C@@H](Cc3ccccc3)NC(=O)[C@@H](CCCCNC(=O)[C@@H](C)NC2=O)NC(=O)CNC1=O)”: the cyclisation yield came out at 82%.

Staying with this series, now noted: whole synthesis, total yield (SPPS and second thioether ligation), TFA salt.
Regarding E ^2 E ^1 Ef z ^2 FK^1GFGGK(biot), the isolated yield amounted to 4%.

Regarding K^2E^1Kwz^2WK^1GFGGK(biot), the isolated yield is 5%.

As for R ^2 E ^1 Rf z ^2 FK^1GFGGK(biot), the isolated yield is given as 4%.

With “{CH2CO}-KEK[dW][dC]WKG-NH2 (lactam 2-7; thioether N-5; SMILES NCCCC[C@@H]1NC(=O)CSC[C@H]2NC(=O)[C@@H](Cc3c[nH]c4ccccc34)NC(=O)[C@H](CCCCN)NC(=O)[C@H](CCC(=O)NCCCC[C@@H](C(=O)NCC(N)=O)NC(=O)[C@H](Cc3c[nH]c4ccccc34)NC2=O)NC1=O)”, the isolated yield came out at 11%.

Regarding “{CH2CO}-RER[dF][dC]FKG-NH2 (lactam 2-7; thioether N-5; SMILES N=C(N)NCCC[C@@H]1NC(=O)CSC[C@H]2NC(=O)[C@@H](Cc3ccccc3)NC(=O)[C@H](CCCNC(=N)N)NC(=O)[C@H](CCC(=O)NCCCC[C@@H](C(=O)NCC(N)=O)NC(=O)[C@H](Cc3ccccc3)NC2=O)NC1=O)”, the isolated yield stood at 3%.

The same series, now with this note: whole synthesis, trifluoroacetate salts.
Turning to L^1GKFPE^1A, the isolated yield came out at 30%.

For the substance L^1GKYPE^1A, the isolated yield worked out at 35%.
